Data taken from publication PMC5841360.
Results are given in words; binding and its absence hold for the method and conditions named. In cells and extracts the contact can be indirect. Binding can be weak; no strength is given.

Sequences of proteins named here, by UniProt entry; tags and fusion partners are left off. A change or cut given only in a name is not applied to a line headed by its entry. Residues count along the entry.
UniProt Q66HL2: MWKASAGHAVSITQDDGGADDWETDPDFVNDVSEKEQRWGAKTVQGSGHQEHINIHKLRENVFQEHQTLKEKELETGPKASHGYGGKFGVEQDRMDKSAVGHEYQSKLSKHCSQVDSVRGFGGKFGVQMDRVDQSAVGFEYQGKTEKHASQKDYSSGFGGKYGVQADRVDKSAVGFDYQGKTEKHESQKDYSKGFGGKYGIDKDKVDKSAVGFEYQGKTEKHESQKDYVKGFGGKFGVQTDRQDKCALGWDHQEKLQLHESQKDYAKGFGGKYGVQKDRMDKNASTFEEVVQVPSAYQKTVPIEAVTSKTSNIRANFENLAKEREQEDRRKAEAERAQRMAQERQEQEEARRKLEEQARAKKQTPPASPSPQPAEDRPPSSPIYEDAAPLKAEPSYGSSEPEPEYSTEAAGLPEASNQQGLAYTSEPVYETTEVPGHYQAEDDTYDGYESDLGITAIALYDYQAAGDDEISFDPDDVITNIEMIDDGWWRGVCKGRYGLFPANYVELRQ
UniProt P19491, residues 22-883: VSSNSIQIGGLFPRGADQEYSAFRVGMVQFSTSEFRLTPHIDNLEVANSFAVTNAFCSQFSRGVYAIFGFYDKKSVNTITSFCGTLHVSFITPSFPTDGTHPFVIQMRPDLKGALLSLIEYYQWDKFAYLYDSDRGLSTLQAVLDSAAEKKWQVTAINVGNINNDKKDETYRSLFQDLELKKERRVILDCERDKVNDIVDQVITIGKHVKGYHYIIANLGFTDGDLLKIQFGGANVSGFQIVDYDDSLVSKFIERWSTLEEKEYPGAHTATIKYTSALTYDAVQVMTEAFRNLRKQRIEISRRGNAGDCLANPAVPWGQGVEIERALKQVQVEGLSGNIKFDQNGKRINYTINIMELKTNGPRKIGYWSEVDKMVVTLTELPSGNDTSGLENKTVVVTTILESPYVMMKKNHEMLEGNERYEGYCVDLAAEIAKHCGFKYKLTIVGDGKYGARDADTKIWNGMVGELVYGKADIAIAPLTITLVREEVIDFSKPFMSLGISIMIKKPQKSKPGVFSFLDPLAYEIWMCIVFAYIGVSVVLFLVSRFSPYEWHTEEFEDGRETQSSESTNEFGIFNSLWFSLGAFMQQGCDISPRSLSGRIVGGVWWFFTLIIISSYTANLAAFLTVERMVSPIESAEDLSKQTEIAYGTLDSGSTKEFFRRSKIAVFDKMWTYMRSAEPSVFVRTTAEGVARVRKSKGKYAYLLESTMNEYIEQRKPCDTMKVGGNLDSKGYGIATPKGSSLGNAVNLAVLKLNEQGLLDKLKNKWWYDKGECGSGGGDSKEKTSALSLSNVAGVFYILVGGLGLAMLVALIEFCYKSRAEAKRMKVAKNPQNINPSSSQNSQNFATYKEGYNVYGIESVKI

Target: cortactin (endogenous, neurons) (rat (endogenous in cultured neurons)) (UniProt Q66HL2)
Assay: co-IP; lysates of cultured neurons immunoprecipitated with cortactin antibody or control IgG; Western blotting; also after NMDA for 3 min (cLTD; 0, 5 and 15 min after stimulation) with or without the Src inhibitor PP2

- binding: binds weakly
Substance: GluA2 AMPA receptor subunit (endogenous, neurons) (from UniProt P19491 22-883)
